Results deposited as PubChem BioAssay AID1259424 (University of Nebraska Medical Center, 2018)

- Assay: 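Seek colon cancer survival genes behaving like KSR1, using a six-gene signature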 (primary screen)
- Cell system: human HCT116 colon cancer cells
- Reagent: siRNA pool against human genes, 50 nM
- Measurement: 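Six signature mRNAs by branched-DNA multiplex assay, scaled to two housekeeping genes and non-targeting median, log2; matched to mean KSR1 knockdown profile by Pearson correlation and euclidean distance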
- Direction: mean correlation with KSR1 profile: higher = expression change more like KSR1 knockdown
The whole screen tested about 14,000 reagents; shown is an unselected part. 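Higher correlation or smaller distance means closer resemblance to KSR1 loss; control wells, including KSR1 knockdowns, recur on many plates.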 Not all columns of the deposit are shown. The record does not give: the time to read-out.

gene	mean correlation with KSR1 profile
MT-CO2 (mitochondrially encoded cytochrome c oxidase II)	0.372
SNX2 (sorting nexin 2)	0.774
TUBB3 (tubulin beta 3 class III)	-0.306
CXCL5 (C-X-C motif chemokine ligand 5)	-0.231
AQR (aquarius intron-binding spliceosomal factor)	-0.524
SFRP5 (secreted frizzled related protein 5)	0.653
ISCA1 (iron-sulfur cluster assembly 1)	-0.194
ZC3H13 (zinc finger CCCH-type containing 13)	-0.246
ZNF541 (zinc finger protein 541)	0.871
CCAR2 (cell cycle and apoptosis regulator 2)	-0.167
ZNF18 (zinc finger protein 18)	0.66
ZBTB14 (zinc finger and BTB domain containing 14)	0.432
BUB1 (BUB1 mitotic checkpoint serine/threonine kinase)	0.326
TCP1 (t-complex 1)	0.276
SLC25A18	0.411
KRT76 (keratin 76)	-0.0641
DUSP15 (dual specificity phosphatase 15)	0.353
B4GAT1 (beta-1,4-glucuronyltransferase 1)	0.0855
BCCIP (BRCA2 and CDKN1A interacting protein)	0.494
P2RY13 (purinergic receptor P2Y13)	0.584
EOMES (eomesodermin)	0.221
RAB9BP1 (RAB9B, member RAS oncogene family pseudogene 1)	-0.64
TRPC4	-0.222
GDF9 (growth differentiation factor 9)	0.149
PRMT2IP (PRMT2 interacting protein)	-0.174
NR2F2 (nuclear receptor subfamily 2 group F member 2)	-0.195
ZSWIM4 (zinc finger SWIM-type containing 4)	-0.365
ALKBH7 (alkB homolog 7, RNA demethylase)	0.691
STAT4 (signal transducer and activator of transcription 4)	0.643
CARD14 (caspase recruitment domain family member 14)	-0.221
SPATA20 (spermatogenesis associated 20)	-0.44
FGFRL1 (fibroblast growth factor receptor like 1)	-0.339

4 neighbouring records from above:
gene	mean correlation with KSR1 profile
P2RY13 (purinergic receptor P2Y13)	0.584
EOMES (eomesodermin)	0.221
RAB9BP1 (RAB9B, member RAS oncogene family pseudogene 1)	-0.64
TRPC4	-0.222

Further entries follow:
gene	mean correlation with KSR1 profile
CTNNBL1 (catenin beta like 1)	-0.188
MPHOSPH6 (M-phase phosphoprotein 6)	-0.487
SLC71A1	-0.0071
ZNF155 (zinc finger protein 155)	0.194
VWA5A (von Willebrand factor A domain containing 5A)	0.237
MAGEA11 (MAGE family member A11)	-0.246
SIL1 (SIL1 nucleotide exchange factor)	-0.134
NMNAT2 (nicotinamide nucleotide adenylyltransferase 2)	-0.389
AP4B1 (adaptor related protein complex 4 subunit beta 1)	0.659
CYP3A7 (cytochrome P450 family 3 subfamily A member 7)	0.252
CPLX1 (complexin 1)	-0.129
OGG1 (8-oxoguanine DNA glycosylase)	0.208
IDI1 (isopentenyl-diphosphate delta isomerase 1)	0.674
CAPS (calcyphosine)	0.289
SIRT6 (sirtuin 6)	-0.229
DNAH3 (dynein axonemal heavy chain 3)	0.209
H2AC8 (H2A clustered histone 8)	0.157
RAB6A (RAB6A, member RAS oncogene family)	-0.676
CEBPA-DT (CEBPA divergent transcript)	0.659
CCN2 (cellular communication network factor 2)	0.0497
LYN (LYN proto-oncogene, Src family tyrosine kinase)	-0.0479
RNF113A (ring finger protein 113A)	-0.391
SGK2 (serum/glucocorticoid regulated kinase 2)	0.0246
AP2A2 (adaptor related protein complex 2 subunit alpha 2)	-0.257
HLA-DRB4 (major histocompatibility complex, class II, DR beta 4)	-0.626
ATP7B (ATPase copper transporting beta)	0.149
ALOXE3 (arachidonate epidermal lipoxygenase 3)	-0.746
BEST2 (bestrophin 2)	0.0375
GPR160 (G protein-coupled receptor 160)	0.84
CFD (complement factor D)	0.309
KRT36 (keratin 36)	-0.396
